# Experimental data taken from publication PMC5433425 (PeerJ, 2017).
# Read-outs that look alike come from different tables or passages of the source. Further values from the same series stand in other lists.
# Tested on: E. coli AG100A
smiles,measurement,setting,value
"CC[n+]1c(-c2ccccc2)c2cc(N)ccc2c2ccc(N)cc21 [EtBr, ethidium bromide]",EtBr fluorescence,"EtBr 0.125 µg/ml, cycle 1",1.587
same,EtBr fluorescence,"EtBr 0.125 µg/ml, cycle 2",1.646
same,EtBr fluorescence,"EtBr 0.125 µg/ml, cycle 3",1.75
same,EtBr fluorescence,"EtBr 0.125 µg/ml, cycle 4",1.846
same,EtBr fluorescence,"EtBr 0.125 µg/ml, cycle 5",1.916
same,EtBr fluorescence,"EtBr 0.125 µg/ml, cycle 6",1.959
same,EtBr fluorescence,"EtBr 0.125 µg/ml, cycle 7",2.099
same,EtBr fluorescence,"EtBr 0.125 µg/ml, cycle 8",2.177
same,EtBr fluorescence,"EtBr 0.125 µg/ml, cycle 9",2.249
same,EtBr fluorescence,"EtBr 0.125 µg/ml, cycle 10",2.264
same,EtBr fluorescence,"EtBr 0.125 µg/ml, cycle 11",2.413
same,EtBr fluorescence,"EtBr 0.125 µg/ml, cycle 12",2.539
same,EtBr fluorescence,"EtBr 0.125 µg/ml, cycle 13",2.534
same,EtBr fluorescence,"EtBr 0.125 µg/ml, cycle 14",2.631
same,EtBr fluorescence,"EtBr 0.125 µg/ml, cycle 15",2.6554
same,EtBr fluorescence,"EtBr 0.125 µg/ml, cycle 16",2.7455
same,EtBr fluorescence,"EtBr 0.125 µg/ml, cycle 17",2.841
same,EtBr fluorescence,"EtBr 0.125 µg/ml, cycle 18",2.931
same,EtBr fluorescence,"EtBr 0.125 µg/ml, cycle 19",2.991
same,EtBr fluorescence,"EtBr 0.125 µg/ml, cycle 20",3.077
same,EtBr fluorescence,"EtBr 0.125 µg/ml, cycle 21",3.104
same,EtBr fluorescence,"EtBr 0.125 µg/ml, cycle 22",3.1693
same,EtBr fluorescence,"EtBr 0.125 µg/ml, cycle 23",3.1574
same,EtBr fluorescence,"EtBr 0.5 µg/ml, cycle 1",2.651
same,EtBr fluorescence,"EtBr 0.5 µg/ml, cycle 2",3.201
same,EtBr fluorescence,"EtBr 0.5 µg/ml, cycle 4",4.126
same,EtBr fluorescence,"EtBr 0.5 µg/ml, cycle 5",4.392
same,EtBr fluorescence,"EtBr 0.5 µg/ml, cycle 6",4.848
same,EtBr fluorescence,"EtBr 0.5 µg/ml, cycle 7",5.184
same,EtBr fluorescence,"EtBr 0.5 µg/ml, cycle 8",5.472
same,EtBr fluorescence,"EtBr 0.5 µg/ml, cycle 9",5.933
same,EtBr fluorescence,"EtBr 0.5 µg/ml, cycle 10",6.2583
same,EtBr fluorescence,"EtBr 0.5 µg/ml, cycle 11",6.734
same,EtBr fluorescence,"EtBr 0.5 µg/ml, cycle 12",7.012
same,EtBr fluorescence,"EtBr 0.5 µg/ml, cycle 13",7.3032
same,EtBr fluorescence,"EtBr 0.5 µg/ml, cycle 14",7.594
same,EtBr fluorescence,"EtBr 0.5 µg/ml, cycle 15",7.944
same,EtBr fluorescence,"EtBr 0.5 µg/ml, cycle 16",8.224
same,EtBr fluorescence,"EtBr 0.5 µg/ml, cycle 17",8.665
same,EtBr fluorescence,"EtBr 0.5 µg/ml, cycle 18",8.971
same,EtBr fluorescence,"EtBr 0.5 µg/ml, cycle 19",9.32
same,EtBr fluorescence,"EtBr 0.5 µg/ml, cycle 20",9.529
same,EtBr fluorescence,"EtBr 0.5 µg/ml, cycle 21",9.672
same,EtBr fluorescence,"EtBr 0.5 µg/ml, cycle 22",10.0306
same,EtBr fluorescence,"EtBr 0.5 µg/ml, cycle 23",10.2683
same,EtBr fluorescence,"EtBr 1 µg/ml, cycle 1",6.097
same,EtBr fluorescence,"EtBr 1 µg/ml, cycle 2",7.549
same,EtBr fluorescence,"EtBr 1 µg/ml, cycle 3",8.8607
same,EtBr fluorescence,"EtBr 1 µg/ml, cycle 4",9.904
same,EtBr fluorescence,"EtBr 1 µg/ml, cycle 7",12.9196
same,EtBr fluorescence,"EtBr 1 µg/ml, cycle 8",13.9929
same,EtBr fluorescence,"EtBr 1 µg/ml, cycle 9",15.0008
same,EtBr fluorescence,"EtBr 1 µg/ml, cycle 10",15.8398
same,EtBr fluorescence,"EtBr 1 µg/ml, cycle 11",16.9387
same,EtBr fluorescence,"EtBr 1 µg/ml, cycle 12",18.2898
same,EtBr fluorescence,"EtBr 1 µg/ml, cycle 13",19.2285
same,EtBr fluorescence,"EtBr 1 µg/ml, cycle 14",20.233
same,EtBr fluorescence,"EtBr 1 µg/ml, cycle 15",21.445
same,EtBr fluorescence,"EtBr 1 µg/ml, cycle 16",22.229
same,EtBr fluorescence,"EtBr 1 µg/ml, cycle 17",23.6389
same,EtBr fluorescence,"EtBr 1 µg/ml, cycle 18",24.5113
same,EtBr fluorescence,"EtBr 1 µg/ml, cycle 23",29.5388
same,EtBr fluorescence,"EtBr 1 µg/ml, cycle 24",30.5695
same,EtBr fluorescence,"EtBr 1 µg/ml, cycle 25",30.98
same,EtBr fluorescence,"EtBr 1 µg/ml, cycle 26",32.2373
same,EtBr fluorescence,"EtBr 1 µg/ml, cycle 27",32.5478
same,EtBr fluorescence,"EtBr 1 µg/ml, cycle 28",33.5269
same,EtBr fluorescence,"EtBr 1 µg/ml, cycle 29",34.0992
same,EtBr fluorescence,"EtBr 1 µg/ml, cycle 30",35.0568
same,EtBr fluorescence,"EtBr 2 µg/ml, cycle 1",13.8754
same,EtBr fluorescence,"EtBr 2 µg/ml, cycle 2",17.6616
same,EtBr fluorescence,"EtBr 2 µg/ml, cycle 3",21.3751
same,EtBr fluorescence,"EtBr 2 µg/ml, cycle 4",24.3701
same,EtBr fluorescence,"EtBr 2 µg/ml, cycle 6",30.2214
same,EtBr fluorescence,"EtBr 2 µg/ml, cycle 7",32.7563
same,EtBr fluorescence,"EtBr 2 µg/ml, cycle 8",35.3071
same,EtBr fluorescence,"EtBr 2 µg/ml, cycle 9",38.5094
same,EtBr fluorescence,"EtBr 2 µg/ml, cycle 10",40.3166
same,EtBr fluorescence,"EtBr 2 µg/ml, cycle 11",43.5877
same,EtBr fluorescence,"EtBr 2 µg/ml, cycle 12",45.9794
same,EtBr fluorescence,"EtBr 2 µg/ml, cycle 13",48.9694
same,EtBr fluorescence,"EtBr 2 µg/ml, cycle 14",51.1321
same,EtBr fluorescence,"EtBr 2 µg/ml, cycle 15",53.474
same,EtBr fluorescence,"EtBr 2 µg/ml, cycle 16",55.7291
same,EtBr fluorescence,"EtBr 2 µg/ml, cycle 17",58.1283
same,EtBr fluorescence,"EtBr 2 µg/ml, cycle 18",60.3944
same,EtBr fluorescence,"EtBr 2 µg/ml, cycle 19",61.6874
same,EtBr fluorescence,"EtBr 2 µg/ml, cycle 20",63.905
same,EtBr fluorescence,"EtBr 2 µg/ml, cycle 21",66.148
same,EtBr fluorescence,"EtBr 2 µg/ml, cycle 22",68.0158
same,EtBr fluorescence,"EtBr 2 µg/ml, cycle 23",69.3444
same,EtBr fluorescence,"EtBr 2 µg/ml, cycle 24",71.4819
same,EtBr fluorescence,"EtBr 2 µg/ml, cycle 25",72.9181
same,EtBr fluorescence,"EtBr 2 µg/ml, cycle 26",74.6918
